Measured values published in patent US20050069542A1 (Human Genome Sciences, published 2005).
These are yes or no findings as the source states them, for the method shown. Some entries that bind do so weakly or less than the wild type. Values belong to the binder of their own block, whether it stands above or below them.

Chains of the proteins cited; added tags and fusions are not shown. Lines headed by an entry give the natural chain unless they say otherwise; changes in a name come on top.
UniProt Q9HD89: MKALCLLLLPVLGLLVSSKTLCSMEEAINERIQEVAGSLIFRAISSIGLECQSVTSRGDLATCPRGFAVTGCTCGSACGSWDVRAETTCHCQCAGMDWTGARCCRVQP

Key:
[1] = target: Flag-tagged recombinant human GMAD (human) (UniProt Q9HD89); test: phage ELISA
[2] = target: Flag-tagged recombinant human GMAD (human) (UniProt Q9HD89); test: phage display selection of scFvs

binding [1]: binds
binding [2]: binds
B8: GMCC131 (scFv)
scFv: QVQLQESGPGLVKPSETLSLTCSVSGGSIRSHYWSWMRQPPGKGLEWIGYVYYTGSTNYNPSLKSRVTMSVDTSKNQFSLNLSSVTAADTAIYYCARFPYSSGSNPLDYWGRGTLVTVSSGGGGSGGGGSGGGGSAQSVLTQPPSVSAAPGQRVTISCTGSSSNIGARYDVHWYQHLPGTAPKLLIYGDSNRPSGVPDRFSGSKSGTSASLAITGLQPEDEADYYCQSYDSSLSGVVFGGGTKVTVLG

binding [1]: binds
binding [2]: binds
B9: GMCC138 (scFv)
scFv: EVQLVETGPGLVKPSQTLSLTCTVSGGSISSGGYYWSWIRQVPGKGLEWIGYNFYNGSTYFNPSLKSRATISIDTTKNQFSLKLSSVTAADTAVYYCARGNGYRYGRWFDPWGRGTLVTVSSGGGGSGGGGSGGGGSALSYELTQPPSVSVSPGQTARITCSGDALPKQYAYWYQQKPGQAPVLVISKDSERPSGIPERFSGSSSGTTVTLTISGVQAEDEADYYCQSADSSGTYWVFGGGTKVTVLG

binding [1]: binds
binding [2]: binds
B10: GMCC142 (scFv)
scFv: EVQLVQSGAEVKKPGASVTISCKASGYTFTAYYIYWVRQAPGQGLEWMGMSNPNGGYTVYPPNFLGRVTTTPDTSTNTIYMELRSLRSEDTAVYYCARGRGRAPSNAFDFWGRGTLVTVSSGGGGSGGGGSGGGGSALSSELTQDPAVSVALGQTVRITCQGDSLKFYYASWYQQKPGQAPVLVLHGKNNRPSGIPDRFSGSTSRDTASLTITGTQAEDEADYYCNSRDNSDNIVFGTGTKLTVLG

binding [1]: binds
binding [2]: binds
B11: GMBC604 (scFv)
scFv: EVQLVQSGAEVKKPGESLRISCKGSGYTFTNYWINWVRQVPGKGLEWMGMIDPTDSYAKYSPSFQGHVTISTDKSVSTAYLQWRSLQASDSAIYYCVRGYSYDLDYWGKGTLVTVSSGGGGSGGGGSGGGGSQSVLTQPASVSGSPGQSITISCTGTSSDVGGYNYVSWYQQHPGKAPKLMIYEGSKRPSGVSNRFSGSKSGNTASLTISGLQAEDEADYYCSSYTTRSTRVFGGGTKLTVLG

Further lines, the binder ahead of its results:

B1: GMCC118 (scFv)
scFv: EVQLVQSGGGLVKPGGSLRLSCTASGFSFTNAWMSWVRQAPGKGLEWVGRIKSRNDGGATDYAAPVKGRFTISRDDSKNTLYLQMNSLKTDDTAVYYCTTDNFPLRFLEWLSHPDYWGQGTMVTVSSGGGGSGGGGSGGGGSAQAVLTQPSSVSVSPGQTVTITCSGEKLDNKYISWYQQRPGRSPILVIYQDRKRPSGIPERFSGSNSGNTATLTITGSQPLDEADYYCQAWDSSTAWEFGGGTKLTVLG
binding [1]: binds
binding [2]: binds

B2: GMCC119 (scFv)
scFv: EVQLVQSGPEVKKPGASVKVSCKASNYTFTTYDISWVRQAPGQGLEWMGWISTYSGNTKYAQKFQGRVTMTRDTSTSAAYMELRNLRSDDTAVYFCARDIRVWRGSGSVHYFDPWGRGTTVTVSSGGGGSGGGGSGGGGSAQSALTQPRSVSGSPGQSVTISCTGTSNDVGGYNFVSWYQQHPGKAPKLMVYNVSKRPSGVPDRFSGSKSGNTASLTISGLQAEDEADYYCSSYAHSYTLVFGGGTKVTVLG
binding [1]: binds
binding [2]: binds

B3: GMCC124 (scFv)
scFv: QVTLKESGAEVKKPGASVKVSCKASGYTFTDNALHWVRQAPGQRPEWMAWINTANGNTRYSQKFQGRLTITRDTSASTAFMDLSSLRSEDTAVYYCARQKAYKNYYYYYGMDVWGQGTLVTVSSGGGGSGGGGSGGGGSAQSVVTQPPSVSAAPGQKVTISCSGSSSNIGNNYVSWYQQLPGTAPKLLIYENNKRPSGIPDRFSGSQSGTSATLGISGLQTGDEADYYCGTWDSSLRAGVFGGGTKLTVLG
binding [1]: binds
binding [2]: binds

B4: GMCC125 (scFv)
scFv: EVQLVQSGGGLVKPGGSLRLSCAASGFSFSDYSMHWIRQAPGKGLEWLSHIGTSTSYTNYADSVKGRFTISRDNAKNSFYLQMNSLRVDDTAVYFCARGFGGLRGYFDYWGQGTLVTVSSGGGGSGGGGSGGGGSALSSELTQDPAVSVALGQTVKITCQGDRLRRFYASWYQQKPGQAPLLLIYGKNSRPSGIPDRFSGSTSGATASLTITGAQAEDEADYYCNSRDSSGSLHSVFGTGTKVTVLG
binding [1]: binds
binding [2]: binds

B5: GMCC126 (scFv)
scFv: QVQLQESGPGLVKPSQTLSLSCAVSGFSVTSGHYWGWIRQSPGKGLEWIGNIYHTGSTRYNPSLESRVSMSVDTSKNQFSLRLTSVTAADTAIYYCARVGRGQHLVRGDFDYWGRGTLVTVSSGGGGSGGGGSGGGGSAQSVLTQPPSISVSPGQTASITCSGDELGHKYASWYQQKPGQSPVVVVYQDNKRPSGIPERFSGSSSGNTATLTISGTQAVDEADYFCQAWDSSAVVFGGGTKLTVLG
binding [1]: binds
binding [2]: binds

B6: GMCC127 (scFv)
scFv: QVQLVQSGGGVVRPGGSLRLSCAASGFTFDDYGMSWVRQAPGKGLEWVSGINWNGGSTGYADSVKGRFTISRDNAKNSLYLQMNSLRAEDTAVYYCARRRYALDYWGRGTLVTVSSGGGGSGGGGSGGGGSALSSELTQDPAVSVALGQAVRITCQGDSLRTNYASWYQQRPGQAPVLVIRGNNNRPSGIPDRFSGSNSGDTVSLTITGAQAEDEADYYCNSRDTSGYHYVFGTGTKLTVLG
binding [1]: binds
binding [2]: binds

B7: GMCC129 (scFv)
scFv: EVQLVETGGGLAQPGGSLRLSCEASGFTFNNYAMSWVRQAPGKGLEWVSGISISGYSTFYTDSVQGRFTISRDNSKNTLYLQMNSLGVDDTAVYYCAKRRGEGGDFDYWGRGTMVTVSSGGGGSGGGGSGGGGSALSSELTQDPAVSVALGQTVRITCQGDSLRGYYASWYQQKAGQAPVLVIYGKNNRPSGIPDRFSGSSSGNTASLTITGAQAEDEADYYCYSRDRSGNHLGMFGGGTKVTVLG
binding [1]: binds
binding [2]: binds
